The text below walks through data of the supplement of paper PMC8728848.

This is one part of the list.

Assay in all cases: glycan array binding signal (z-score within array); higher = stronger binding
What all share (settings): glycan notation: IUPAC condensed, linker removed

In assay [1] the target is GlcNAc(b1-3)Gal. The procedure, abridged:
(§1)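 From the Consortium for Functional Glycomics database, 3228 arrays were curated, keeping only those whose protein sequence was available. Binding is given as a within-array Z-score averaged across arrays sharing a protein sequence and across linkers. Negative Z-scores can be read as non-binding.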

Assay [2] has as its target GlcNAc(b1-3)Gal(b1-3)GalNAc. The essentials: as §1
The target of assay [3] is GlcNAc(b1-3)Gal(b1-4)Glc. The procedure, abridged: as §1
In assay [4] the target is GlcNAc(b1-3)Gal(b1-4)GlcNAc. The procedure, abridged:
as §1

In assay [5] the target is GlcNAc(b1-3)Gal(b1-4)GlcNAc(b1-2)Man(a1-3)[GlcNAc(b1-3)Gal(b1-4)GlcNAc(b1-2)Man(a1-6)]Man(b1-4)GlcNAc(b1-4)GlcNAc. The procedure, abridged:
as §1

Assay [6] deals with GlcNAc(b1-3)Gal(b1-4)GlcNAc(b1-2)Man(a1-3)[GlcNAc(b1-3)Gal(b1-4)GlcNAc(b1-2)Man(a1-6)]Man(b1-4)GlcNAc(b1-4)[Fuc(a1-6)]GlcNAc. The essentials:
as §1

The target of assay [7] is GlcNAc(b1-3)Gal(b1-4)GlcNAc(b1-2)[GlcNAc(b1-3)Gal(b1-4)GlcNAc(b1-6)]Man(a1-6)[GlcNAc(b1-3)Gal(b1-4)GlcNAc(b1-2)Man(a1-3)]Man(b1-4)GlcNAc(b1-4)GlcNAc. The essentials:
as §1

Assay [8] concerns the target GlcNAc(b1-3)Gal(b1-4)GlcNAc(b1-3)Gal(b1-4)GlcNAc. The procedure, abridged:
as §1

The target of assay [9] is GlcNAc(b1-3)Gal(b1-4)GlcNAc(b1-3)Gal(b1-4)GlcNAc(b1-2)Man(a1-3)[GlcNAc(b1-3)Gal(b1-4)GlcNAc(b1-3)Gal(b1-4)GlcNAc(b1-2)Man(a1-6)]Man(b1-4)GlcNAc(b1-4)GlcNAc. The procedure, abridged:
as §1

Assay [10] deals with GlcNAc(b1-3)Gal(b1-4)GlcNAc(b1-3)Gal(b1-4)GlcNAc(b1-2)Man(a1-3)[GlcNAc(b1-3)Gal(b1-4)GlcNAc(b1-3)Gal(b1-4)GlcNAc(b1-2)Man(a1-6)]Man(b1-4)GlcNAc(b1-4)[Fuc(a1-6)]GlcNAc. The essentials: as §1
The target of assay [11] is GlcNAc(b1-3)Gal(b1-4)GlcNAc(b1-3)Gal(b1-4)GlcNAc(b1-2)[GlcNAc(b1-3)Gal(b1-4)GlcNAc(b1-3)Gal(b1-4)GlcNAc(b1-6)]Man(a1-6)[GlcNAc(b1-3)Gal(b1-4)GlcNAc(b1-3)Gal(b1-4)GlcNAc(b1-2)Man(a1-3)]Man(b1-4)GlcNAc(b1-4)[Fuc(a1-6)]GlcNAc. The procedure, abridged: as §1
Assay [12] deals with GlcNAc(b1-3)Gal(b1-4)GlcNAc(b1-3)Gal(b1-4)GlcNAc(b1-3)Gal(b1-4)GlcNAc(b1-2)Man(a1-3)[GlcNAc(b1-3)Gal(b1-4)GlcNAc(b1-3)Gal(b1-4)GlcNAc(b1-3)Gal(b1-4)GlcNAc(b1-2)Man(a1-6)]Man(b1-4)GlcNAc(b1-4)GlcNAc. The procedure, abridged:
as §1

Assay [13] deals with GlcNAc(b1-3)Gal(b1-4)GlcNAc(b1-3)Gal(b1-4)GlcNAc(b1-3)Gal(b1-4)GlcNAc(b1-2)Man(a1-3)[GlcNAc(b1-3)Gal(b1-4)GlcNAc(b1-3)Gal(b1-4)GlcNAc(b1-3)Gal(b1-4)GlcNAc(b1-2)Man(a1-6)]Man(b1-4)GlcNAc(b1-4)[Fuc(a1-6)]GlcNAc. The procedure, abridged:
as §1

Assay [14] deals with GlcNAc(b1-3)Gal(b1-4)GlcNAc(b1-3)Gal(b1-4)GlcNAc(b1-3)Gal(b1-4)GlcNAc(b1-2)[GlcNAc(b1-3)Gal(b1-4)GlcNAc(b1-3)Gal(b1-4)GlcNAc(b1-3)Gal(b1-4)GlcNAc(b1-6)]Man(a1-6)[GlcNAc(b1-3)Gal(b1-4)GlcNAc(b1-3)Gal(b1-4)GlcNAc(b1-3)Gal(b1-4)GlcNAc(b1-2)Man(a1-3)]Man(b1-4)GlcNAc(b1-4)[Fuc(a1-6)]GlcNAc. The essentials: as §1
Assay [15] addresses GlcNAc(b1-3)Gal(b1-4)GlcNAc(b1-3)Gal(b1-4)GlcNAc(b1-3)Gal(b1-4)GlcNAc(b1-3)Gal(b1-4)GlcNAc(b1-2)Man(a1-3)[GlcNAc(b1-3)Gal(b1-4)GlcNAc(b1-3)Gal(b1-4)GlcNAc(b1-3)Gal(b1-4)GlcNAc(b1-3)Gal(b1-4)GlcNAc(b1-2)Man(a1-6)]Man(b1-4)GlcNAc(b1-4)GlcNAc. The essentials:
as §1

Assay [16] addresses GlcNAc(b1-3)Gal(b1-4)GlcNAc(b1-3)Gal(b1-4)GlcNAc(b1-3)Gal(b1-4)GlcNAc(b1-3)Gal(b1-4)GlcNAc(b1-2)Man(a1-3)[GlcNAc(b1-3)Gal(b1-4)GlcNAc(b1-3)Gal(b1-4)GlcNAc(b1-3)Gal(b1-4)GlcNAc(b1-3)Gal(b1-4)GlcNAc(b1-2)Man(a1-6)]Man(b1-4)GlcNAc(b1-4)[Fuc(a1-6)]GlcNAc. The procedure, abridged:
as §1

In assay [17] the target is GlcNAc(b1-3)Gal(b1-4)GlcNAc(b1-3)Gal(b1-4)GlcNAc(b1-3)Gal(b1-4)GlcNAc(b1-3)Gal(b1-4)GlcNAc(b1-2)[GlcNAc(b1-3)Gal(b1-4)GlcNAc(b1-3)Gal(b1-4)GlcNAc(b1-3)Gal(b1-4)GlcNAc(b1-3)Gal(b1-4)GlcNAc(b1-6)]Man(a1-6)[GlcNAc(b1-3)Gal(b1-4)GlcNAc(b1-3)Gal(b1-4)GlcNAc(b1-3)Gal(b1-4)GlcNAc(b1-3)Gal(b1-4)GlcNAc(b1-2)Man(a1-3)]Man(b1-4)GlcNAc(b1-4)[Fuc(a1-6)]GlcNAc. The procedure, abridged:
as §1

Assay [18] deals with GlcNAc(b1-3)Gal(b1-4)GlcNAc(b1-3)Gal(b1-4)GlcNAc(b1-3)GalNAc. The essentials: as §1
Assay [19] has as its target GlcNAc(b1-3)Gal(b1-4)GlcNAc(b1-3)GalNAc. The procedure, abridged:
as §1

Assay [20] addresses GlcNAc(b1-3)Gal(b1-4)GlcNAc(b1-3)[GlcNAc(b1-3)Gal(b1-4)GlcNAc(b1-3)]GalNAc. The procedure, abridged:
as §1

Assay [21] has as its target GlcNAc(b1-3)Gal(b1-4)GlcNAc(b1-6)[Gal(b1-3)]GalNAc. The procedure, abridged: as §1
For assay [22], the target named is GlcNAc(b1-3)Gal(b1-4)GlcNAc(b1-6)[GlcNAc(b1-3)Gal(b1-3)]GalNAc. The procedure, abridged: as §1
The target of assay [23] is GlcNAc(b1-3)Gal(b1-4)GlcNAc(b1-6)[GlcNAc(b1-3)]Gal(b1-4)GlcNAc. The essentials: as §1

B1: Endo180d1-D4 (Homo sapiens), Q9UBG0 (protein)
chain: MGPGRPAPAPWPRHLLRCVLLLGCLHLGRPGAPGDAALPEPNVFLIFSHGLQGCLEAQGGQVRVTPACNTSLPAQRWKWVSRNRLFNLGTMQCLGTGWPGTNTTASLGMYECDREALNLRWHCRTLGDQLSLLLGARTSNISKPGTLERGDQTRSGQWRIYGSEEDLCALPYHEVYTIQGNSHGKPCTIPFKYDNQWFHGCTSTGREDGHLWCATTQDYGKDERWGFCPIKSNDCETFWDKDQLTDSCYQFNFQSTLSWREAWASCEQQGADLLSITEIHEQTYINGLLTGYSSTLWIGLNDLDTSGGWQWSDNSPLKYLNWESDQPDNPSEENCGVIRTESSGGWQNRDCSIALPYVCKKKPNATAEPTPPDRWANVKVECEPSWQPFQGHCYRLQAEKRSWQESKKACLRGGGDLVSIHSMAELEFITKQIKQEVEELWIGLNDLKLQMNFEWSDGSLVSFTHWHPFEPNNFRDSLEDCVTIWGPEGRWNDSPCNQSLPSICKKAGQLSQGAAEEDHGCRKGWTWHSPSCYWLGEDQVTYSEARRLCTDHGSQLVTITNRFEQAFVSSLIYNWEGEYFWTALQDLNSTGSFFWLSGDEVMYTHWNRDQPGYSRGGCVALATGSAMGLWEVKNCTSFRARYICRQSLGTPVTPELPGPDPTPSLTGSCPQGWASDTKLRYCYKVFSSERLQDKKSWVQAQGACQELGAQLLSLASYEEEHFVANMLNKIFGESEPEIHEQHWFWIGLNRRDPRGGQSWRWSDGVGFSYHNFDRSRHDDDDIRGCAVLDLASLQWVAMQCDTQLDWICKIPRGTDVREPDDSPQGRREWLRFQEAEYKFFEHHSTWAQAQRICTWFQAELTSVHSQAELDFLSHNLQKFSRAQEQHWWIGLHTSESDGRFRWTDGSIINFISWAPGKPRPVGKDKKCVYMTASREDWGDQRCLTALPYICKRSNVTKETQPPDLPTTALGGCPSDWIQFLNKCFQVQGQEPQSRVKWSEAQFSCEQQEAQLVTITNPLEQAFITASLPNVTFDLWIGLHASQRDFQWVEQEPLMYANWAPGEPSGPSPAPSGNKPTSCAVVLHSPSAHFTGRWDDRSCTEETHGFICQKGTDPSLSPSPAALPPAPGTELSYLNGTFRLLQKPLRWHDALLLCESHNASLAYVPDPYTQAFLTQAARGLRTPLWIGLAGEEGSRRYSWVSEEPLNYVGWQDGEPQQPGGCTYVDVDGAWRTTSCDTKLQGAVCGVSSGPPPPRRISYHGSCPQGLADSAWIPFREHCYSFHMELLLGHKEARQRCQRAGGAVLSILDEMENVFVWEHLQSYEGQSRGAWLGMNFNPKGGTLVWQDNTAVNYSNWGPPGLGPSMLSHNSCYWIQSNSGLWRPGACTNITMGVVCKLPRAEQSSFSPSALPENPAALVVVLMAVLLLLALLTAALILYRRRQSIERGAFEGARYSRSSSSPTEATEKNILVSDMEMNEQQE
Turning to B1, the “glycan array binding signal (z-score)” value was -0.774 in assay [1]; 0.761 in assay [2]; -0.032 in [3]; -0.084 in [4]; -0.555 in [5]; -0.315 in assay [6]. The “glycan array binding signal (z-score)” value is -0.163 in assay [7]; -0.114 in [8]; -0.428 in assay [9]; 0.617 in assay [10]; 4.5 in assay [11]; 0.637 in assay [12]. Besides, the “glycan array binding signal (z-score)” value in [13] is 0.135; in [14] it was 1.02; in assay [15], -0.28; in assay [16] it was 0.828; in assay [17] it was -0.156; in assay [18], 1.61. Also, the “glycan array binding signal (z-score)” value was 1.1 in assay [19]; -0.76 in [20]; -0.285 in assay [21]; -0.487 in assay [22]; 0.383 in assay [23].
